Results deposited as PubChem BioAssay AID493246 (Drosophila RNAi Screening Center, 2011).

- Aim: 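Identify essential fly genes by loss of cell viability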 (primary screen)
- Cell system: Drosophila Kc and S2R+ cells
- Reagent: long dsRNA against Drosophila genes
- Read-out: 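Raw, unnormalised count of remaining cells in each well; per-plate z-scores of cell number underlie the calls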
- Direction: Kc cell number and S2R+ cell number: higher = more cells remaining
- Active means: 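Counted as a hit if cell number falls by a z-score of at least 3 within its plate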
The screen tested about 21,000 reagents; this is an unselected part of those with a known target gene and a result. In the full data, 429 (2%) were called active. 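Values are raw and not normalised between plates; calls rest on per-plate z-scores that were not deposited.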 Unmarked entries are inactive. The record does not give: the amount of reagent, the time to read-out.

{"gene": "CG6870", "Kc cell number, rep 1": 1.57e6, "Kc cell number, rep 2": 1.61e6, "S2R+ cell number, rep 1": 1.36e6, "S2R+ cell number, rep 2": 1.50e6}
{"gene": "pes (peste)", "Kc cell number, rep 1": 1.43e6, "Kc cell number, rep 2": 1.52e6, "S2R+ cell number, rep 1": 1.16e6, "S2R+ cell number, rep 2": 1.26e6}
{"gene": "CG4702", "Kc cell number, rep 1": 1.59e6, "Kc cell number, rep 2": 1.66e6, "S2R+ cell number, rep 1": 1.36e6, "S2R+ cell number, rep 2": 1.42e6}
{"gene": "CG12289", "Kc cell number, rep 1": 1.27e6, "Kc cell number, rep 2": 1.38e6, "S2R+ cell number, rep 1": 1.29e6, "S2R+ cell number, rep 2": 1.36e6}
{"gene": "Or69a (Odorant receptor 69a)", "Kc cell number, rep 1": 1.31e6, "Kc cell number, rep 2": 1.39e6, "S2R+ cell number, rep 1": 1.22e6, "S2R+ cell number, rep 2": 1.33e6}
{"gene": "hiro (highroad)", "Kc cell number, rep 1": 1.34e6, "Kc cell number, rep 2": 1.42e6, "S2R+ cell number, rep 1": 1.10e6, "S2R+ cell number, rep 2": 1.20e6}
{"gene": "ChLD3 (Chitin and LDLR binding deacetylase 3)", "Kc cell number, rep 1": 1.47e6, "Kc cell number, rep 2": 1.53e6, "S2R+ cell number, rep 1": 1.22e6, "S2R+ cell number, rep 2": 1.38e6}
{"gene": "CG4306", "Kc cell number, rep 1": 1.18e6, "Kc cell number, rep 2": 1.40e6, "S2R+ cell number, rep 1": 1.31e6, "S2R+ cell number, rep 2": 1.38e6}
{"gene": "CG13216", "Kc cell number, rep 1": 1.74e6, "Kc cell number, rep 2": 1.65e6, "S2R+ cell number, rep 1": 1.40e6, "S2R+ cell number, rep 2": 1.48e6}
{"gene": "CG17477", "Kc cell number, rep 1": 1.34e6, "Kc cell number, rep 2": 1.34e6, "S2R+ cell number, rep 1": 1.10e6, "S2R+ cell number, rep 2": 1.22e6}

4 of these entries, set out differently:
| gene | Kc cell number, rep 1 | Kc cell number, rep 2 | S2R+ cell number, rep 1 | S2R+ cell number, rep 2 |
| --- | --- | --- | --- | --- |
| ChLD3 (Chitin and LDLR binding deacetylase 3) | 1.47e6 | 1.53e6 | 1.22e6 | 1.38e6 |
| CG4306 | 1.18e6 | 1.40e6 | 1.31e6 | 1.38e6 |
| CG13216 | 1.74e6 | 1.65e6 | 1.40e6 | 1.48e6 |
| CG17477 | 1.34e6 | 1.34e6 | 1.10e6 | 1.22e6 |

More results follow:
{"gene": "prg (piragua)", "Kc cell number, rep 1": 1.91e6, "Kc cell number, rep 2": 1.93e6, "S2R+ cell number, rep 1": 1.22e6, "S2R+ cell number, rep 2": 1.42e6}
{"gene": "CG14949", "Kc cell number, rep 1": 1.49e6, "Kc cell number, rep 2": 1.38e6, "S2R+ cell number, rep 1": 1.03e6, "S2R+ cell number, rep 2": 1.33e6}
{"gene": "Rpn9 (Regulatory particle non-ATPase 9)", "Kc cell number, rep 1": 1.31e6, "Kc cell number, rep 2": 1.42e6, "S2R+ cell number, rep 1": 1.10e6, "S2R+ cell number, rep 2": 1.22e6}
{"gene": "Lam (Lamin)", "Kc cell number, rep 1": "1.26e6 (active)", "Kc cell number, rep 2": 1.24e6, "S2R+ cell number, rep 1": 6.85e5, "S2R+ cell number, rep 2": 8.30e5}
{"gene": "Ir94f (Ionotropic receptor 94f)", "Kc cell number, rep 1": 1.13e6, "Kc cell number, rep 2": 1.42e6, "S2R+ cell number, rep 1": 1.07e6, "S2R+ cell number, rep 2": 1.07e6}
{"gene": "CG32971", "Kc cell number, rep 1": 1.43e6, "Kc cell number, rep 2": 1.43e6, "S2R+ cell number, rep 1": 8.91e5, "S2R+ cell number, rep 2": 1.11e6}
{"gene": "Cyp6w1 (Cytochrome P450 6w1)", "Kc cell number, rep 1": 1.38e6, "Kc cell number, rep 2": 1.45e6, "S2R+ cell number, rep 1": 1.11e6, "S2R+ cell number, rep 2": 1.17e6}
{"gene": "maf-S", "Kc cell number, rep 1": 1.35e6, "Kc cell number, rep 2": 1.22e6, "S2R+ cell number, rep 1": 1.00e6, "S2R+ cell number, rep 2": 1.38e6}
{"gene": "ppk29 (pickpocket 29)", "Kc cell number, rep 1": 1.57e6, "Kc cell number, rep 2": 1.62e6, "S2R+ cell number, rep 1": 1.34e6, "S2R+ cell number, rep 2": 1.44e6}
{"gene": "CG9676", "Kc cell number, rep 1": 1.61e6, "Kc cell number, rep 2": 1.59e6, "S2R+ cell number, rep 1": 1.18e6, "S2R+ cell number, rep 2": 1.22e6}
{"gene": "mr (morula)", "Kc cell number, rep 1": 1.37e6, "Kc cell number, rep 2": 1.38e6, "S2R+ cell number, rep 1": 1.09e6, "S2R+ cell number, rep 2": 1.16e6}
{"gene": "CG7564", "Kc cell number, rep 1": 1.44e6, "Kc cell number, rep 2": 1.50e6, "S2R+ cell number, rep 1": 1.28e6, "S2R+ cell number, rep 2": 1.48e6}
{"gene": "RPA1 (Replication protein A1)", "Kc cell number, rep 1": 1.41e6, "Kc cell number, rep 2": 1.48e6, "S2R+ cell number, rep 1": 9.86e5, "S2R+ cell number, rep 2": 1.11e6}
{"gene": "Coq3 (Coenzyme Q3)", "Kc cell number, rep 1": 1.35e6, "Kc cell number, rep 2": 1.37e6, "S2R+ cell number, rep 1": 1.01e6, "S2R+ cell number, rep 2": 1.15e6}
{"gene": "CG30065", "Kc cell number, rep 1": 1.48e6, "Kc cell number, rep 2": 1.39e6, "S2R+ cell number, rep 1": 1.02e6, "S2R+ cell number, rep 2": 1.14e6}
{"gene": "Ip259 (Intronic Protein 259)", "Kc cell number, rep 1": 1.19e6, "Kc cell number, rep 2": 1.33e6, "S2R+ cell number, rep 1": 7.90e5, "S2R+ cell number, rep 2": 8.56e5}
{"gene": "CG17219", "Kc cell number, rep 1": 1.64e6, "Kc cell number, rep 2": 1.65e6, "S2R+ cell number, rep 1": 1.15e6, "S2R+ cell number, rep 2": 1.37e6}
